# The other results are listed elsewhere or left out.
# Columns and labels:
# Assay in all cases: glycan array binding signal (z-score within array); higher = stronger binding
# Settings in all cases: glycan notation: IUPAC condensed, linker removed
# Glc(b1-6)Glc = target: Glc(b1-6)Glc
# Method in brief: (§1)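 The binding signal is a Z-score computed within each array and averaged over linkers. Arrays of the same protein sequence at different concentrations or buffers were also averaged together. Data originate from 3228 arrays in the Consortium for Functional Glycomics database, kept only where the protein sequence was available.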
# GlcA(b1-3)Gal = target: GlcA(b1-3)Gal
# Method in brief: as §1
# GlcA(b1-3)GlcNAc = target: GlcA(b1-3)GlcNAc
# Method in brief: as §1
# GlcA(b1-6)Gal = target: GlcA(b1-6)Gal
# Method in brief: as §1
# [1] = target: GlcA3S(b1-3)Gal(b1-4)GlcNAc(b1-2)Man
# Method in brief: as §1
# [2] = target: GlcA3S(b1-3)Gal(b1-4)GlcNAc(b1-3)Gal(b1-4)Glc
# Method in brief: as §1
# [3] = target: GlcNAc(a1-3)Gal(b1-4)GlcNAc
# Method in brief: as §1
# [4] = target: GlcNAc(a1-4)Gal(b1-3)GlcNAc
# Method in brief: as §1
# [5] = target: GlcNAc(a1-4)Gal(b1-4)GalNAc
# Method in brief: as §1
# [6] = target: GlcNAc(a1-4)Gal(b1-4)GlcNAc
# Method in brief: as §1
# [7] = target: GlcNAc(a1-4)Gal(b1-4)GlcNAc(b1-3)Gal(b1-4)Glc
# Method in brief: as §1
# [8] = target: GlcNAc(a1-4)Gal(b1-4)GlcNAc(b1-3)Gal(b1-4)GlcNAc
# Method in brief: as §1
# [9] = target: GlcNAc(a1-4)Gal(b1-4)GlcNAc(b1-3)Gal(b1-4)GlcNAc(b1-3)Gal(b1-4)GlcNAc
# Method in brief: as §1
# [10] = target: GlcNAc(a1-4)Gal(b1-4)GlcNAc(b1-3)Gal(b1-4)[Fuc(a1-3)]GlcNAc(b1-3)Gal(b1-4)[Fuc(a1-3)]GlcNAc
# Method in brief: as §1
# [11] = target: GlcNAc(a1-6)Gal(b1-4)GlcNAc
# Method in brief: as §1
# [12] = target: GlcNAc(b1-2)Gal(b1-3)GalNAc
# Method in brief: as §1
# [13] = target: GlcNAc(b1-2)Man(a1-3)[GlcNAc(b1-2)Man(a1-6)]Man(b1-4)GlcNAc(b1-4)GlcNAc
# Method in brief: as §1
# [14] = target: GlcNAc(b1-2)Man(a1-3)[GlcNAc(b1-2)Man(a1-6)]Man(b1-4)GlcNAc(b1-4)[Fuc(a1-6)]GlcNAc
# Method in brief: as §1
# [15] = target: GlcNAc(b1-2)Man(a1-3)[GlcNAc(b1-4)][GlcNAc(b1-2)Man(a1-6)]Man(b1-4)GlcNAc(b1-4)GlcNAc
# Method in brief: as §1
# [16] = target: GlcNAc(b1-2)Man(a1-3)[GlcNAc(b1-4)][GlcNAc(b1-2)Man(a1-6)]Man(b1-4)GlcNAc(b1-4)[Fuc(a1-6)]GlcNAc
# Method in brief: as §1
# [17] = target: GlcNAc(b1-2)[GlcNAc(b1-4)]Man(a1-3)[GlcNAc(b1-2)Man(a1-6)]Man(b1-4)GlcNAc(b1-4)GlcNAc
# Method in brief: as §1
# [18] = target: GlcNAc(b1-2)[GlcNAc(b1-4)]Man(a1-3)[GlcNAc(b1-4)][GlcNAc(b1-2)Man(a1-6)]Man(b1-4)GlcNAc(b1-4)GlcNAc
# Method in brief: as §1
# [19] = target: GlcNAc(b1-2)[GlcNAc(b1-4)]Man(a1-3)[GlcNAc(b1-4)][GlcNAc(b1-2)[GlcNAc(b1-6)]Man(a1-6)]Man(b1-4)GlcNAc(b1-4)GlcNAc
# Method in brief: as §1
# [20] = target: GlcNAc(b1-2)[GlcNAc(b1-4)]Man(a1-3)[GlcNAc(b1-4)][GlcNAc(b1-2)[GlcNAc(b1-6)]Man(a1-6)]Man(b1-4)GlcNAc(b1-4)[Fuc(a1-6)]GlcNAc
# Method in brief: as §1
# [21] = target: GlcNAc(b1-2)[GlcNAc(b1-6)]Man(a1-6)[GlcNAc(b1-2)Man(a1-3)]Man(b1-4)GlcNAc(b1-4)GlcNAc
# Method in brief: as §1
# [22] = target: GlcNAc(b1-2)[GlcNAc(b1-6)]Man(a1-6)[GlcNAc(b1-2)Man(a1-3)]Man(b1-4)GlcNAc(b1-4)[Fuc(a1-6)]GlcNAc
# Method in brief: as §1
# [23] = target: GlcNAc(b1-2)[GlcNAc(b1-6)]Man(a1-6)[GlcNAc(b1-4)][GlcNAc(b1-2)Man(a1-3)]Man(b1-4)GlcNAc(b1-4)GlcNAc
# Method in brief: as §1
# GlcNAc(b1-3)Fuc = target: GlcNAc(b1-3)Fuc
# Method in brief: as §1
# GlcNAc(b1-3)Gal = target: GlcNAc(b1-3)Gal
# Method in brief: as §1
# [24] = target: GlcNAc(b1-3)Gal(b1-3)GalNAc
# Method in brief: as §1
# GlcNAc(b1-3)Gal(b1-4)Glc = target: GlcNAc(b1-3)Gal(b1-4)Glc
# Method in brief: as §1
# [25] = target: GlcNAc(b1-3)Gal(b1-4)GlcNAc
# Method in brief: as §1
# [26] = target: GlcNAc(b1-3)Gal(b1-4)GlcNAc(b1-2)Man(a1-3)[GlcNAc(b1-3)Gal(b1-4)GlcNAc(b1-2)Man(a1-6)]Man(b1-4)GlcNAc(b1-4)GlcNAc
# Method in brief: as §1
# [27] = target: GlcNAc(b1-3)Gal(b1-4)GlcNAc(b1-2)Man(a1-3)[GlcNAc(b1-3)Gal(b1-4)GlcNAc(b1-2)Man(a1-6)]Man(b1-4)GlcNAc(b1-4)[Fuc(a1-6)]GlcNAc
# Method in brief: as §1
# [28] = target: GlcNAc(b1-3)Gal(b1-4)GlcNAc(b1-2)[GlcNAc(b1-3)Gal(b1-4)GlcNAc(b1-6)]Man(a1-6)[GlcNAc(b1-3)Gal(b1-4)GlcNAc(b1-2)Man(a1-3)]Man(b1-4)GlcNAc(b1-4)GlcNAc
# Method in brief: as §1
# [29] = target: GlcNAc(b1-3)Gal(b1-4)GlcNAc(b1-3)Gal(b1-4)GlcNAc
# Method in brief: as §1
# [30] = target: GlcNAc(b1-3)Gal(b1-4)GlcNAc(b1-3)Gal(b1-4)GlcNAc(b1-2)Man(a1-3)[GlcNAc(b1-3)Gal(b1-4)GlcNAc(b1-3)Gal(b1-4)GlcNAc(b1-2)Man(a1-6)]Man(b1-4)GlcNAc(b1-4)GlcNAc
# Method in brief: as §1
# [31] = target: GlcNAc(b1-3)Gal(b1-4)GlcNAc(b1-3)Gal(b1-4)GlcNAc(b1-2)Man(a1-3)[GlcNAc(b1-3)Gal(b1-4)GlcNAc(b1-3)Gal(b1-4)GlcNAc(b1-2)Man(a1-6)]Man(b1-4)GlcNAc(b1-4)[Fuc(a1-6)]GlcNAc
# Method in brief: as §1
# [32] = target: GlcNAc(b1-3)Gal(b1-4)GlcNAc(b1-3)Gal(b1-4)GlcNAc(b1-2)[GlcNAc(b1-3)Gal(b1-4)GlcNAc(b1-3)Gal(b1-4)GlcNAc(b1-6)]Man(a1-6)[GlcNAc(b1-3)Gal(b1-4)GlcNAc(b1-3)Gal(b1-4)GlcNAc(b1-2)Man(a1-3)]Man(b1-4)GlcNAc(b1-4)[Fuc(a1-6)]GlcNAc
# Method in brief: as §1
# [33] = target: GlcNAc(b1-3)Gal(b1-4)GlcNAc(b1-3)Gal(b1-4)GlcNAc(b1-3)Gal(b1-4)GlcNAc(b1-2)Man(a1-3)[GlcNAc(b1-3)Gal(b1-4)GlcNAc(b1-3)Gal(b1-4)GlcNAc(b1-3)Gal(b1-4)GlcNAc(b1-2)Man(a1-6)]Man(b1-4)GlcNAc(b1-4)GlcNAc
# Method in brief: as §1
# [34] = target: GlcNAc(b1-3)Gal(b1-4)GlcNAc(b1-3)Gal(b1-4)GlcNAc(b1-3)Gal(b1-4)GlcNAc(b1-2)Man(a1-3)[GlcNAc(b1-3)Gal(b1-4)GlcNAc(b1-3)Gal(b1-4)GlcNAc(b1-3)Gal(b1-4)GlcNAc(b1-2)Man(a1-6)]Man(b1-4)GlcNAc(b1-4)[Fuc(a1-6)]GlcNAc
# Method in brief: as §1
# [35] = target: GlcNAc(b1-3)Gal(b1-4)GlcNAc(b1-3)Gal(b1-4)GlcNAc(b1-3)Gal(b1-4)GlcNAc(b1-2)[GlcNAc(b1-3)Gal(b1-4)GlcNAc(b1-3)Gal(b1-4)GlcNAc(b1-3)Gal(b1-4)GlcNAc(b1-6)]Man(a1-6)[GlcNAc(b1-3)Gal(b1-4)GlcNAc(b1-3)Gal(b1-4)GlcNAc(b1-3)Gal(b1-4)GlcNAc(b1-2)Man(a1-3)]Man(b1-4)GlcNAc(b1-4)[Fuc(a1-6)]GlcNAc
# Method in brief: as §1
# [36] = target: GlcNAc(b1-3)Gal(b1-4)GlcNAc(b1-3)Gal(b1-4)GlcNAc(b1-3)Gal(b1-4)GlcNAc(b1-3)Gal(b1-4)GlcNAc(b1-2)Man(a1-3)[GlcNAc(b1-3)Gal(b1-4)GlcNAc(b1-3)Gal(b1-4)GlcNAc(b1-3)Gal(b1-4)GlcNAc(b1-3)Gal(b1-4)GlcNAc(b1-2)Man(a1-6)]Man(b1-4)GlcNAc(b1-4)GlcNAc
# Method in brief: as §1
# [37] = target: GlcNAc(b1-3)Gal(b1-4)GlcNAc(b1-3)Gal(b1-4)GlcNAc(b1-3)Gal(b1-4)GlcNAc(b1-3)Gal(b1-4)GlcNAc(b1-2)Man(a1-3)[GlcNAc(b1-3)Gal(b1-4)GlcNAc(b1-3)Gal(b1-4)GlcNAc(b1-3)Gal(b1-4)GlcNAc(b1-3)Gal(b1-4)GlcNAc(b1-2)Man(a1-6)]Man(b1-4)GlcNAc(b1-4)[Fuc(a1-6)]GlcNAc
# Method in brief: as §1
# [38] = target: GlcNAc(b1-3)Gal(b1-4)GlcNAc(b1-3)Gal(b1-4)GlcNAc(b1-3)Gal(b1-4)GlcNAc(b1-3)Gal(b1-4)GlcNAc(b1-2)[GlcNAc(b1-3)Gal(b1-4)GlcNAc(b1-3)Gal(b1-4)GlcNAc(b1-3)Gal(b1-4)GlcNAc(b1-3)Gal(b1-4)GlcNAc(b1-6)]Man(a1-6)[GlcNAc(b1-3)Gal(b1-4)GlcNAc(b1-3)Gal(b1-4)GlcNAc(b1-3)Gal(b1-4)GlcNAc(b1-3)Gal(b1-4)GlcNAc(b1-2)Man(a1-3)]Man(b1-4)GlcNAc(b1-4)[Fuc(a1-6)]GlcNAc
# Method in brief: as §1
binder,measurement,setting,value
Pwp7 (Candida glabrata) (protein) MGSSHHHHHHSSGLVPRGSHMASKNPVDFPNLCQYPNLDGAVAGFDTEIYNADPSILINFSLWPILQFPKEWHKTIGRAITTQTNFKLPASDTTLFGVSIPTQNILIEFRGYFIPPKSGTYTFALYLTDDGSAMFLGNDAAFPCGNITSWSNPTNDQVSVSDYDPKKKTLTVYMVAGVAYPLRIAYYNREKGGSLTASFVDPDGLTHSDWNGYIWTLPSCDNCKYS,glycan array binding signal (z-score),Glc(b1-6)Glc,0.09
same,glycan array binding signal (z-score),GlcA(b1-3)Gal,-0.1
same,glycan array binding signal (z-score),GlcA(b1-3)GlcNAc,-1.12
same,glycan array binding signal (z-score),GlcA(b1-6)Gal,-0.416
same,glycan array binding signal (z-score),[1],0.715
same,glycan array binding signal (z-score),[2],0.239
same,glycan array binding signal (z-score),[3],-1.06
same,glycan array binding signal (z-score),[4],-0.88
same,glycan array binding signal (z-score),[5],-0.829
same,glycan array binding signal (z-score),[6],-0.268
same,glycan array binding signal (z-score),[7],-0.021
same,glycan array binding signal (z-score),[8],-0.128
same,glycan array binding signal (z-score),[9],-0.206
same,glycan array binding signal (z-score),[10],0.257
same,glycan array binding signal (z-score),[11],-0.965
same,glycan array binding signal (z-score),[12],-0.716
same,glycan array binding signal (z-score),[13],0.107
same,glycan array binding signal (z-score),[14],0.212
same,glycan array binding signal (z-score),[15],1.21
same,glycan array binding signal (z-score),[16],-0.002
same,glycan array binding signal (z-score),[17],-0.131
same,glycan array binding signal (z-score),[18],-0.478
same,glycan array binding signal (z-score),[19],0.072
same,glycan array binding signal (z-score),[20],-0.029
same,glycan array binding signal (z-score),[21],1.35
same,glycan array binding signal (z-score),[22],0.402
same,glycan array binding signal (z-score),[23],0.494
same,glycan array binding signal (z-score),GlcNAc(b1-3)Fuc,-1.03
same,glycan array binding signal (z-score),GlcNAc(b1-3)Gal,-0.803
same,glycan array binding signal (z-score),[24],1.02
same,glycan array binding signal (z-score),GlcNAc(b1-3)Gal(b1-4)Glc,-1.1
same,glycan array binding signal (z-score),[25],-0.755
same,glycan array binding signal (z-score),[26],1.01
same,glycan array binding signal (z-score),[27],0.927
same,glycan array binding signal (z-score),[28],1.17
same,glycan array binding signal (z-score),[29],-0.296
same,glycan array binding signal (z-score),[30],1.87
same,glycan array binding signal (z-score),[31],1.88
same,glycan array binding signal (z-score),[32],1.79
same,glycan array binding signal (z-score),[33],0.478
same,glycan array binding signal (z-score),[34],1.59
same,glycan array binding signal (z-score),[35],1.85
same,glycan array binding signal (z-score),[36],1.66
same,glycan array binding signal (z-score),[37],2.91
same,glycan array binding signal (z-score),[38],1.62

# Exported with tabs: part of the list above.
binder	measurement	setting	value
Pwp7 (Candida glabrata) (protein) MGSSHHHHHHSSGLVPRGSHMASKNPVDFPNLCQYPNLDGAVAGFDTEIYNADPSILINFSLWPILQFPKEWHKTIGRAITTQTNFKLPASDTTLFGVSIPTQNILIEFRGYFIPPKSGTYTFALYLTDDGSAMFLGNDAAFPCGNITSWSNPTNDQVSVSDYDPKKKTLTVYMVAGVAYPLRIAYYNREKGGSLTASFVDPDGLTHSDWNGYIWTLPSCDNCKYS	glycan array binding signal (z-score)	[31]	1.88
same	glycan array binding signal (z-score)	[32]	1.79
